According to PubChem BioAssay AID493014 (National Center for Advancing Translational Sciences (NCATS), 2011):
This is one part of the list. Shown are side measurements of this screen, not its main read-out; they come without a call. The list favours compounds with an active or inconclusive main result. The note in brackets gives the kind of curve behind each potency; many fits are weak.

Experiment: qHTS Assay to Find Inhibitors of Chronic Active B-Cell Receptor Signaling
Settings: ABC-DLBCL IkBa-CBG/CBR reporter, luminescence ratio (green luciferase fused to IkBa over red control in TMD8 lymphoma cells), 4 h
Method in brief: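 Concentration-response series (up to 46 uM) were applied to TMD8 dual-reporter cells for 4 h at 37C with doxycycline. Green/red ratio, after filter-overlap correction, defined %Activity; red signal alone was normalised to basal cells and zero luminescence.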

[1] = measured here: CBR red luminescence, cell number
[2] = measured here: IkBa-CBG green luminescence

Row | SMILES | AC50 [1] | AC50 [2]
1 | Cc1nc(C(=O)Nc2ccccc2)sc1C(=O)Nc1ccccc1 | 8.91 µM [falling, partial curve] | –
2 | O=C(COC(=O)c1cc(=O)c2ccccc2o1)NCc1ccccc1 | 25.9 µM [rising, partial curve, poor fit] | –
3 | Cc1ccc2oc(=O)c3cc(C(=O)N4CCN(C(=O)c5ccco5)CC4)sc3c2c1 | 0.224 µM [rising, full curve, poor fit] | –
4 | O=C(OCc1ccc2c(c1)OCO2)c1cccc(S(=O)(=O)N2CCCCC2)c1 | 3.26 µM [rising, partial curve, poor fit] | –
5 | Oc1ccc(Br)cc1/C=N/Nc1ncc(-c2ccccc2)cn1 | 14.1 µM [falling, partial curve, poor fit] | –
6 | COc1ccc(CC(=O)NCc2ccc3c(c2)cc(C)n3C)cc1 | 3.16 µM [rising, partial curve, poor fit] | –
7 | OC(CNc1ncnc2sccc12)c1ccccc1 (stereo not drawn) | 11.2 µM [falling, partial curve] | –
8 | COc1ccc(OC)c(/C=C/C(=O)N2CCCc3ccccc32)c1 | 11.2 µM [falling, partial curve, poor fit] | –
9 | COc1ccc(/C=N/NC(=O)c2cccc(Br)c2)cc1COc1ccccn1 | 11.2 µM [falling, partial curve, poor fit] | –
10 | O=C(NCCc1ccc(Cl)cc1)c1ccc(CS(=O)(=O)Cc2ccc(F)cc2)o1 | 12.6 µM [rising, single point] | –
11 | O=C1CCCC2=C1C(c1ccccc1)NC(=S)N2 (stereo not drawn) | 4.47 µM [falling, full curve] | –
12 | O=C(NN1C(=O)NC2(CCCCC2)C1=O)c1cc(F)cc(F)c1 | 2.06 µM [rising, partial curve, poor fit] | –
13 | Cc1ccc(-n2c(-c3cn(C)nc3C)n[nH]c2=S)cc1 | 20 µM [rising, single point] | –
14 | COCCN(CCOC)c1ncnc2c1cnn2-c1ccc(Cl)cc1 | 16.4 µM [rising, partial curve, poor fit] | –
15 | COc1ccc(S(=O)(=O)NCc2ccccn2)cc1Cl | 0.259 µM [falling, full curve, poor fit] | –
16 | O=c1c2ccccc2nc(COc2ccccc2)n1/N=C/c1ccc(O)cc1O | 12.6 µM [falling, single point] | –
17 | CN(C)c1ccc(C(=O)OCC(=O)NC2CCCCC2)cc1 | 32.6 µM [rising, single point] | –
18 | N#Cc1cccc(C(=O)OCC(=O)N2CCCc3ccccc32)c1 | 29.1 µM [falling, single point] | –
19 | CSc1ccccc1OCc1cc(C(=O)N(C)C(C)c2nc(C)cs2)no1 (stereo not drawn) | 20 µM [falling, partial curve, poor fit] | –
20 | O=C(CC1SC(=NCCc2ccccc2)N(/N=C/c2cccs2)C1=O)Nc1ccc(Cl)cc1 (stereo not drawn) | 0.517 µM [rising, full curve, poor fit] | –
21 | Cc1ccc(C(=O)OCC(=O)N(C)c2c(N)n(Cc3ccccc3)c(=O)[nH]c2=O)s1 | 4.61 µM [rising, partial curve, poor fit] | –
22 | CC(=O)CCc1c(C)nc2ccc(C(=O)O)cc2c1Cl | – | 14.6 µM [rising, partial curve, poor fit]

Row | SMILES | AC50 [1] | AC50 [2]
23 | CCc1ccc(NC(=O)c2cnccn2)cc1 | 35.5 µM [falling, single point] | –
24 | C=CCSc1nc2ccsc2c(=O)n1-c1ccccc1 | 35.5 µM [rising, single point] | –
25 | Cc1[nH]n(C(N)=S)c(=O)c1N=Nc1ccc2ccccc2c1 | 31.6 µM [falling, single point] | 0.631 µM [falling, partial curve, poor fit]
26 | Cc1nc2ccccc2c2oc(C(=O)N3CCc4ccccc4C3)cc12 | 0.58 µM [falling, partial curve, poor fit] | –
27 | O=C(O)c1ccc(CSC2CCCCC2)cc1 | 35.5 µM [rising, single point] | –
28 | Cc1nc(SCC(=O)Nc2cccc(C(=O)O)c2)n[nH]1 | 14.1 µM [falling, partial curve, poor fit] | –
29 | Cc1ccc(C(=O)COC(=O)c2cccc([N+](=O)[O-])c2)s1 | 6.51 µM [rising, full curve, poor fit] | –
30 | CCCn1c(=O)c(C(=O)N/N=C/c2ccccc2F)c(O)c2ccccc21 | 5.62 µM [falling, full curve, poor fit] | –
31 | COc1ccc(NC(=O)CSc2nccn2C2CCCC2)cc1OC | 0.562 µM [falling, full curve, poor fit] | –
32 | Cc1ccc(C2OC(=O)c3ccccc32)cc1 (stereo not drawn) | 16.4 µM [rising, single point] | –
33 | CN(C)c1ccc2c3c(cccc13)C(=O)N(c1ccccc1)C2=O | 35.5 µM [rising, single point] | –
34 | COC(=O)C1CCN(C(=O)COC(=O)C2CCN(S(=O)(=O)c3ccc(C)c(C)c3)CC2)CC1 | 0.103 µM [falling, full curve, poor fit] | –
35 | COc1ccc(C(=O)NC2=NCCS2)cc1S(=O)(=O)N1CCCCC1C (stereo not drawn) | 35.5 µM [falling, partial curve, poor fit] | –
36 | O=C(NCc1ccco1)c1cc2ccc(O)cc2oc1=O | 11.2 µM [falling, partial curve] | –
37 | O=C(NCCc1ccc(Cl)cc1)C1CCCN1C(=O)Nc1ccc(F)cc1 (stereo not drawn) | 6.31 µM [falling, partial curve, poor fit] | –
38 | O=C(Nc1ccccc1)NN(C(=O)CCl)c1ccccc1 | 0.562 µM [falling, full curve] | –
39 | COC(=O)[C@H](C)N(Cc1ccc(Cl)c(Cl)c1)S(=O)(=O)CCNC1CCCC1 | 29.1 µM [falling, single point] | –
40 | OCCN1CCN(CCCN2c3ccccc3Sc3ccc(Cl)cc32)CC1 | 4.47 µM [falling, partial curve] | –
41 | CCOC(=O)/C=C/C(=O)Nc1nccs1 | 20.6 µM [falling, single point] | 5.8 µM [rising, full curve, poor fit]
42 | N#Cc1ccccc1NC(=O)CC1c2ccccc2Oc2ccccc21 | 29.1 µM [rising, single point] | –
43 | C/C(=N\Nc1cccc2cccnc12)c1ccc(N)cc1 | 7.94 µM [falling, partial curve] | –
44 | O=C(CSCc1ccc(Cl)cc1)Nc1ccc(O)cc1C(=O)O | 12.6 µM [falling, partial curve] | –

Row | SMILES | AC50 [1] | AC50 [2]
45 | O=C1NC2c3ccccc3C(=O)N2c2c1cnn2-c1ccccc1 (stereo not drawn) | 18.4 µM [rising, partial curve, poor fit] | –
46 | O=C(Nc1nsc(-c2ccccc2)n1)c1ccncc1 | 14.1 µM [falling, single point] | –
47 | O=C(N/N=C/c1ccc(N2CCOCC2)o1)c1cccc([N+](=O)[O-])c1 | 25.9 µM [rising, single point] | –
48 | O=C(CCS(=O)(=O)c1ccc(Br)cc1)N1CCN(c2ccccc2Cl)CC1 | 16.4 µM [rising, single point] | –
49 | CC(=O)N1CCc2c(sc(NC(=O)c3ccc([N+](=O)[O-])o3)c2C#N)C1 | 3.55 µM [falling, full curve] | –
50 | COc1ccc(-c2nc3oc4cc(OC)ccc4c(=O)c3c(=O)n2Cc2ccco2)cc1 | 16.4 µM [falling, single point] | –
51 | Oc1cccc(Nc2nc(O)c(/C=C3\C=Nc4ccccc43)s2)c1 | 20 µM [falling, partial curve, poor fit] | –
52 | Brc1ccc(Nc2nc3ccccc3n3nnnc23)cc1 | 25.9 µM [falling, partial curve, poor fit] | –
53 | Cn1nc(C(F)(F)F)c2cc(NC(=O)OCC(C)(C)C)sc21 | 35.5 µM [rising, partial curve, poor fit] | –
54 | CC(CCc1ccccc1)NC(=O)CSc1nc(N)cc(N)n1 (stereo not drawn) | 29.1 µM [rising, single point] | –
55 | Cc1ccsc1C(=O)N/N=C/c1ccc2c(c1)OCO2 | 0.184 µM [falling, full curve] | –
56 | CCCCNS(=O)(=O)c1ccc2nc(SCC(=O)N3CC(C)OC(C)C3)[nH]c2c1 (stereo not drawn) | 5.17 µM [rising, single point] | –
57 | CCC(=O)Nc1cccc(C2=NOC3(C2)C[C@H](C(N)=O)N(C(=O)Cc2ccc([N+](=O)[O-])cc2)C3)c1 (stereo partly drawn) | 11.2 µM [rising, single point] | –
58 | COc1ccc(C2CC(c3ccc(OC)c(OC)c3)=NN2C(=O)c2ccccc2)cc1 (stereo not drawn) | 0.316 µM [rising, full curve, poor fit] | 10 µM [falling, partial curve]
59 | Cc1cc(C)c(C)c(S(=O)(=O)N[C@@H](C)C(=O)OC(C)C(=O)NC(N)=O)c1C (stereo partly drawn) | 6.31 µM [rising, partial curve, poor fit] | –
60 | C=C1CCN(CC(=O)OC)S(=O)(=O)c2ccccc21 | 35.5 µM [rising, single point] | –
61 | CCOc1cccc(C(=O)N/N=C/c2ccoc2)c1 | 5.62 µM [falling, partial curve, poor fit] | –
62 | COc1cccc(C(=O)Nc2ccc3c(c2)C(=O)NC3=O)c1 | 35.5 µM [falling, partial curve, poor fit] | –
63 | Nc1ccc(N=Nc2ccccc2)c2ccccc12 | 12.6 µM [rising, partial curve] | –
64 | O=Nc1ccc(O)c2ncccc12 | 10 µM [falling, single point] | –
65 | C(#Cc1ccc2c(c1)COc1c3ccccc3nn1-2)c1ccccc1 | 1.46 µM [rising, full curve, poor fit] | –

Some of the entries above in a different format:
Oc1cccc(Nc2nc(O)c(/C=C3\C=Nc4ccccc43)s2)c1
  AC50 [1]: 20 µM [falling, partial curve, poor fit]
Brc1ccc(Nc2nc3ccccc3n3nnnc23)cc1
  AC50 [1]: 25.9 µM [falling, partial curve, poor fit]
Cn1nc(C(F)(F)F)c2cc(NC(=O)OCC(C)(C)C)sc21
  AC50 [1]: 35.5 µM [rising, partial curve, poor fit]
